{"source": "paper doi:10.1101/2021.06.03.447020", "biological_target": "T1, recombinant His-tagged Reg4 (not stated (human or mouse cDNA cloned)) (UniProt Q9D8G5)", "T1 sequence": "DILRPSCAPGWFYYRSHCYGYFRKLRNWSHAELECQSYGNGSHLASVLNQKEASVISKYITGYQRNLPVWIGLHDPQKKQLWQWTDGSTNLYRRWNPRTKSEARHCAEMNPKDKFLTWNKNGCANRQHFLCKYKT", "assay": "pull-down", "note": "These are yes or no findings as the source states them, for the method shown. In cells and extracts the contact can be indirect. Binding can be weak; no strength is given. Where a sequence is shown, tags or fusion partners need not be part of it.", "data": [{"substance": "flagellin of Salmonella Typhimurium", "values": [{"measurement": "binding", "result": "binds"}]}]}
